Laboratory results as given in the supplement of paper PMC10849652.
The other results are listed elsewhere or left out.

Chains of the proteins cited; added tags and fusions are not shown. Lines headed by an entry give the natural chain unless they say otherwise; changes in a name come on top.
UniProt Q02224: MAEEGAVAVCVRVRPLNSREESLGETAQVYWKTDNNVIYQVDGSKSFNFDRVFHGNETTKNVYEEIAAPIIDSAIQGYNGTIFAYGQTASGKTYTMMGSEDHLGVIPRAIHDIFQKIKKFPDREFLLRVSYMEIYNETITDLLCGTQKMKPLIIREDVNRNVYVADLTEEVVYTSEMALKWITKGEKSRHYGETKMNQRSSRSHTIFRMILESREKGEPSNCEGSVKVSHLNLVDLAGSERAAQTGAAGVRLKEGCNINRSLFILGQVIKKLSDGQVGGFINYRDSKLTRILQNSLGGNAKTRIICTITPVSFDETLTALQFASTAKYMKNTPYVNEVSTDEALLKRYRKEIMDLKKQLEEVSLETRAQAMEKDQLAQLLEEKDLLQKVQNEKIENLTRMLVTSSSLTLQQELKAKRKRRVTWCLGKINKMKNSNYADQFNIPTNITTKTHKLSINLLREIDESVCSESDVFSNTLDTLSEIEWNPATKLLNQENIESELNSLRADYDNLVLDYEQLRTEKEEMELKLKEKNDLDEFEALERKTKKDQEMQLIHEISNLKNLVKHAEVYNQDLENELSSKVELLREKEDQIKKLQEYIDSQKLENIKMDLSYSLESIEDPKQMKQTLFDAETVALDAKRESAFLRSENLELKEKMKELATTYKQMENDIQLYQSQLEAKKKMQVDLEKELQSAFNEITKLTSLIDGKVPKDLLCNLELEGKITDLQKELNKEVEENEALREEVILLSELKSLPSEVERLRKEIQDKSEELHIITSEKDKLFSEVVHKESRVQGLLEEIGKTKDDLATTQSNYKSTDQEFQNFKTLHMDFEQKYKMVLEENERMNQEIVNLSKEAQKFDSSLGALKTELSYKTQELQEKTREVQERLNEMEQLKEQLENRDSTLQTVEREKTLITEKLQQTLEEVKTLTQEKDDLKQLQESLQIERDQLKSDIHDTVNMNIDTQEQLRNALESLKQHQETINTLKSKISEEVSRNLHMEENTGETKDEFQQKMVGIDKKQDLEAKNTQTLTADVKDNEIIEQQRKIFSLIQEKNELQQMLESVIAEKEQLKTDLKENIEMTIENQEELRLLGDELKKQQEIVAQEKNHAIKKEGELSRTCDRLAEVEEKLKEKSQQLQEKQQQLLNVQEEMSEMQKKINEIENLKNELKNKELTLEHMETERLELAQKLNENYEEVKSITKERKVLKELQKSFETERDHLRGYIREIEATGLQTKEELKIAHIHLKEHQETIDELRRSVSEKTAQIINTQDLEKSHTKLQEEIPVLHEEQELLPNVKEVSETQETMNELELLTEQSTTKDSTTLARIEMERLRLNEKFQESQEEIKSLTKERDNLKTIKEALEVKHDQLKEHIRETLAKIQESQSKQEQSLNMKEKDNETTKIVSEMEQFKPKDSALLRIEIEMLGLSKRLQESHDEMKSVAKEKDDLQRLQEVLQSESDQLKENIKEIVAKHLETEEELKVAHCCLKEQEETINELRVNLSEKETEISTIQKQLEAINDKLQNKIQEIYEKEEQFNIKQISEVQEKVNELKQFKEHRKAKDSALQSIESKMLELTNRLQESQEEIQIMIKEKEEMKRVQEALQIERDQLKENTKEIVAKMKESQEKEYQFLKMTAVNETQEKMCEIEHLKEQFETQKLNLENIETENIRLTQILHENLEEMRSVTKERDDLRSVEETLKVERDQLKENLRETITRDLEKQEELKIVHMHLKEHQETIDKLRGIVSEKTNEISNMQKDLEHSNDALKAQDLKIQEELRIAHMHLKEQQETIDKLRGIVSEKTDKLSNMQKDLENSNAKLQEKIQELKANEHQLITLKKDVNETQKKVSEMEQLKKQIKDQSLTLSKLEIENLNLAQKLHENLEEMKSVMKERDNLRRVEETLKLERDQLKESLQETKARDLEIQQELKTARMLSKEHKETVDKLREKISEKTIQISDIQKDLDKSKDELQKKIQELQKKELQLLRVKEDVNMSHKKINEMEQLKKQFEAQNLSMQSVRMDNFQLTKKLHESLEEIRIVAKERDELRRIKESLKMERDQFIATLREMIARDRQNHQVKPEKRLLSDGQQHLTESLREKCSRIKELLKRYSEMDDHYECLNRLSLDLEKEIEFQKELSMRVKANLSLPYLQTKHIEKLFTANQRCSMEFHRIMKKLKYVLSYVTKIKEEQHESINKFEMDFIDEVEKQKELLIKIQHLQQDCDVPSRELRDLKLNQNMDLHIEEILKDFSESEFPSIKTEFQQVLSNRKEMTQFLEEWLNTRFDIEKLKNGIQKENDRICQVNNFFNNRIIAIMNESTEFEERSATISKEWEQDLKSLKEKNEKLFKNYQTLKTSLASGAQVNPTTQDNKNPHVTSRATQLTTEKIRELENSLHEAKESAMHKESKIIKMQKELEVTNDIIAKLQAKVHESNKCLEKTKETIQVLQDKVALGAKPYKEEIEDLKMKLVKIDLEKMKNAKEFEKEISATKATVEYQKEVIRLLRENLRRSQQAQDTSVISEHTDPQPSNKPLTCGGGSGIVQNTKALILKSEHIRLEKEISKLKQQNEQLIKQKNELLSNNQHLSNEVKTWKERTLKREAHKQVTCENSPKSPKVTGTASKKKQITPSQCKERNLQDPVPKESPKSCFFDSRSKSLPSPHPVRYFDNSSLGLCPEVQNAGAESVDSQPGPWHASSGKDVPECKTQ
UniProt Q9BSY4: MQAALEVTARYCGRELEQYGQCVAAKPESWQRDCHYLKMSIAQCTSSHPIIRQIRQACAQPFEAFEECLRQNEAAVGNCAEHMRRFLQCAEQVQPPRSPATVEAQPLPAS
UniProt P49336: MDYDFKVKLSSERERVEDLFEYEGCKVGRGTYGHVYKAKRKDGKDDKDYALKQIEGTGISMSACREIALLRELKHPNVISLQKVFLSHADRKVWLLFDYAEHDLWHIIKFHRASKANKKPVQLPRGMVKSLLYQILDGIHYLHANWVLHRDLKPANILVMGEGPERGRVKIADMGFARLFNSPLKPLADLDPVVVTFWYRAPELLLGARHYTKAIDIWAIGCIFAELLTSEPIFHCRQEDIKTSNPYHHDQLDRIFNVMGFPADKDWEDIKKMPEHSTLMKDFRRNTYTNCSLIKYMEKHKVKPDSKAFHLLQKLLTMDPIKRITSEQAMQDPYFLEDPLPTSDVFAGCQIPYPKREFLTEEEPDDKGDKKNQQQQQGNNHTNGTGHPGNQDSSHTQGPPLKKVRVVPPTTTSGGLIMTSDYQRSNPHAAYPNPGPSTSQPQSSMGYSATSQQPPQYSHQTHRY
UniProt O75956: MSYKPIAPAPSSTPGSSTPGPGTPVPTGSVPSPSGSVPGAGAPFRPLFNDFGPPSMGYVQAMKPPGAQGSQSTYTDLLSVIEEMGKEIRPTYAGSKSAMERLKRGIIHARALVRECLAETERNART
UniProt P17676: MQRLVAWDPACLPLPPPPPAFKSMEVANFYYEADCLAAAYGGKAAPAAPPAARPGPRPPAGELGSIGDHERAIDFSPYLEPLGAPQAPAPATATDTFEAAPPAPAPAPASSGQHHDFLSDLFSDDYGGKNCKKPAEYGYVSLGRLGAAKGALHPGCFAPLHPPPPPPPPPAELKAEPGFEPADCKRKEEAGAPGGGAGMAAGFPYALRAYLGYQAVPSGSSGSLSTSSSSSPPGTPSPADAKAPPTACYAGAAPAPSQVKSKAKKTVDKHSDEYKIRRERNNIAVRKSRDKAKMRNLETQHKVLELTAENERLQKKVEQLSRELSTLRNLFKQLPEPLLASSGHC
UniProt Q99459: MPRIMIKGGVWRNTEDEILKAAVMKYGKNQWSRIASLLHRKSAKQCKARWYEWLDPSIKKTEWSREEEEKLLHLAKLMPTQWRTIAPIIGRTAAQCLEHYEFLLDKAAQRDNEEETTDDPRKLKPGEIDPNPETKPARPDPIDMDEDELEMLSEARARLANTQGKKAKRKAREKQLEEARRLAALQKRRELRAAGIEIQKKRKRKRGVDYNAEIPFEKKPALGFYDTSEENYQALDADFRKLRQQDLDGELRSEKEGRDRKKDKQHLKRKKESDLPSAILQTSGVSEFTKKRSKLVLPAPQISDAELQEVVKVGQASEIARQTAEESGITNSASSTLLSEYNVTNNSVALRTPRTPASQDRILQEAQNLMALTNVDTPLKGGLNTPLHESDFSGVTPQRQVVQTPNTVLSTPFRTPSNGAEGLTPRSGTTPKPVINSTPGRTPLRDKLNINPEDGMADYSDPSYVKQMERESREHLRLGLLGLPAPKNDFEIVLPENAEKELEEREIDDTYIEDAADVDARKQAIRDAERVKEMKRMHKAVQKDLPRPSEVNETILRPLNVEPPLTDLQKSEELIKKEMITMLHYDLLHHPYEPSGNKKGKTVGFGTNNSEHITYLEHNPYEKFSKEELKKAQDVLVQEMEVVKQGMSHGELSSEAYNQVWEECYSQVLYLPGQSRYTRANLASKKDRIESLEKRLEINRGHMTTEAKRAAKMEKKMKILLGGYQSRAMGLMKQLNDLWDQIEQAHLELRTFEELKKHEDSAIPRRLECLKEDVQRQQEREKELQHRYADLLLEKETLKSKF
UniProt O75419: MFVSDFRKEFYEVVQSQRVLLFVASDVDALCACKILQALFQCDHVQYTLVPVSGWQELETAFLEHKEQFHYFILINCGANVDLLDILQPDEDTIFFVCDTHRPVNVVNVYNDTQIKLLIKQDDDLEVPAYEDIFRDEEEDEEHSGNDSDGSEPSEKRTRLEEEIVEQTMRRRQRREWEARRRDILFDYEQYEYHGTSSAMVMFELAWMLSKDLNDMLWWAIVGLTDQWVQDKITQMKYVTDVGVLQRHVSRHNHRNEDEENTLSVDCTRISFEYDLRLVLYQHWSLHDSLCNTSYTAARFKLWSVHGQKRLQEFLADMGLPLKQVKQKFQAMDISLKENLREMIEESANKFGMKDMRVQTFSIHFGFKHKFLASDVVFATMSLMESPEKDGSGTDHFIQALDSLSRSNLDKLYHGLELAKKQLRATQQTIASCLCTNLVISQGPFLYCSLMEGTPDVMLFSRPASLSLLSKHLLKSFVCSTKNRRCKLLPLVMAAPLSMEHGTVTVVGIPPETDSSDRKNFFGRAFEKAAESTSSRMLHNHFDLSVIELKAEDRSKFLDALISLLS
UniProt Q6IPU0: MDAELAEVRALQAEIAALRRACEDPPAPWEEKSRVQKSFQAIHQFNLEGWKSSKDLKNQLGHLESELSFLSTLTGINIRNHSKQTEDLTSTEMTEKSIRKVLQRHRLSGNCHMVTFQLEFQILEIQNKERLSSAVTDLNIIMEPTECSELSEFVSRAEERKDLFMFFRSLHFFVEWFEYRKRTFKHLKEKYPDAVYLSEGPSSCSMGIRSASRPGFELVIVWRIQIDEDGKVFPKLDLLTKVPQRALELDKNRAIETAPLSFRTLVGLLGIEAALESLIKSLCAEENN

Assays:
Experiment in all cases: log2 fold change, soluble protein after heating vs DMSO (PISA); higher = thermal stabilisation; K562 cells, 10 uM, 30 min; active = over 0.2 and 3.5 SD of the protein, either way, in both replicates (recomputed)
[1] = compound: COC1=CC=C(C=C1)CN2C=CC3=C2C=C(C=C3)C(=O)NO
Procedure, shortened: (§1)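 K562 cells at 2×10^6 cells/mL were given 10 μM compound for 30 min. Aliquots then went through 3 min of heating across 48°C-58°C, were pooled, and were extracted in PBS with 0.5% NP-40 at 4°C, and the supernatant after 21,000xg for 90 min was quantified by TMTpro 16plex LC-MS/MS with channel sums equalised. Thermal stability relative to control samples, from duplicates, is given as log2 fold change.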

filanesib = compound: CON(C)C(=O)N1N=C(c2cc(F)ccc2F)S[C@@]1(CCCN)c1ccccc1 [filanesib]
Procedure, shortened: as §1

zotarolimus = compound: CO[C@H]1C[C@@H]2CC[C@@H](C)[C@@](O)(O2)C(=O)C(=O)N2CCCC[C@H]2C(=O)O[C@H]([C@H](C)C[C@@H]2CC[C@H](n3cnnn3)[C@H](OC)C2)CC(=O)[C@H](C)/C=C(\C)[C@@H](O)[C@@H](OC)C(=O)[C@H](C)C[C@H](C)/C=C/C=C/C=C/1C [zotarolimus]
Procedure, shortened: as §1

idasanutlin = compound: COc1cc(C(=O)O)ccc1NC(=O)[C@@H]1N[C@@H](CC(C)(C)C)[C@](C#N)(c2ccc(Cl)cc2F)[C@H]1c1cccc(Cl)c1F [idasanutlin]
Procedure, shortened: as §1

[2] = compound: COc1cc2nc(-c3cc(F)ccc3O)nc(N[C@@H]3CNC[C@H]3C(C)(C)O)c2cc1OC
Procedure, shortened: as §1

lapatinib = compound: CS(=O)(=O)CCNCc1ccc(-c2ccc3ncnc(Nc4ccc(OCc5cccc(F)c5)c(Cl)c4)c3c2)o1 [lapatinib]
Procedure, shortened: as §1

pictilisib = compound: CS(=O)(=O)N1CCN(Cc2cc3nc(-c4cccc5[nH]ncc45)nc(N4CCOCC4)c3s2)CC1 [pictilisib]
Procedure, shortened: as §1

alisertib = compound: COc1cc(Nc2ncc3c(n2)-c2ccc(Cl)cc2C(c2c(F)cccc2OC)=NC3)ccc1C(=O)O [alisertib]
Procedure, shortened: as §1

gefitinib = compound: COc1cc2ncnc(Nc3ccc(F)c(Cl)c3)c2cc1OCCCN1CCOCC1 [gefitinib]
Procedure, shortened: as §1

[3] = compound: COc1cccc2cc(-c3nc([C@H]4CC[C@H](C(=O)O)CC4)n4ncnc(N)c34)[nH]c12
Procedure, shortened: as §1

Measured: log2 fold change

CENPE (UniProt Q02224)
inactive: [1] -0.355 | filanesib 0.445 | zotarolimus 0.288 | idasanutlin -0.407 | [2] -0.068 | lapatinib 0.024 | pictilisib 0.048

CHCHD5 (UniProt Q9BSY4)
inactive: [1] -0.079 | filanesib -0.032 | zotarolimus -0.243 | alisertib -0.127 | [2] 0.019 | gefitinib 0.089 | [3] 0.061 | lapatinib 0.062

CDK8 (UniProt P49336)
inactive: [1] 0.03 | filanesib 0.008 | zotarolimus -0.044 | idasanutlin -0.136 | alisertib -0.137 | [2] -0.105 | [3] -0.005 | lapatinib -0.047 | pictilisib 0.038

CENPC (UniProt Q03188)
inactive: [1] -0.15 | zotarolimus 0.016 | idasanutlin 0.199 | [2] 0.058 | gefitinib -0.1 | lapatinib 0.103

CEP170B (UniProt Q9Y4F5)
inactive: [1] 0.009 | filanesib 0.188 | idasanutlin 0.164 | alisertib -0.119 | [3] 0.003 | pictilisib 0.171

CHML (UniProt P26374)
inactive: [1] -0.017 | filanesib -0.012 | zotarolimus 0.031 | idasanutlin -0.085 | alisertib -0.019 | [2] 0.059 | gefitinib 0.006 | [3] 0.01 | lapatinib 0.008 | pictilisib 0.04

CFAP97 (UniProt Q9P2B7)
inactive: [1] -0.082 | filanesib 0.231 | zotarolimus 0.043 | idasanutlin -0.044 | [2] -0.045 | lapatinib 0.11 | pictilisib -0.029

CDK2AP2 (UniProt O75956)
inactive: [1] 0.078 | zotarolimus -0.022 | idasanutlin -0.043 | alisertib -0.019 | gefitinib -0.009 | [3] -0.11

CFAP36 isoform 2 (UniProt Q96G28)
inactive: [1] 0.12 | filanesib 0.055 | zotarolimus 0.162 | idasanutlin -0.02 | alisertib -0.049 | [2] 0.001 | [3] 0.019 | lapatinib 0.082 | pictilisib 0.241

CEMIP2 (UniProt Q9UHN6)
inactive: [1] -0.018 | zotarolimus 0.008 | idasanutlin 0.021 | alisertib 0.202 | [2] 0.121 | gefitinib 0.072 | [3] 0.135 | lapatinib 0.026 | pictilisib 0.097

CEBPB (UniProt P17676)
inactive: [1] -0.135 | zotarolimus -0.001 | idasanutlin -0.118 | alisertib -0.366 | [2] -0.007 | gefitinib -0.116 | [3] -0.057 | lapatinib 0.066 | pictilisib 0

CDC5L (UniProt Q99459)
inactive: [1] 0.067 | filanesib 0.007 | zotarolimus 0.184 | idasanutlin 0.419 | alisertib 0.017 | [3] -0.08 | pictilisib -0.295

CHERP (UniProt Q8IWX8)
inactive: [1] 0.04 | filanesib 0.266 | zotarolimus 0.051 | idasanutlin 0.063 | alisertib 0.002 | [2] -0.227 | gefitinib -0.02 | [3] 0.002 | lapatinib -0.023 | pictilisib 0.038

Reprinted from the listing (4 entries):
CEMIP2 (UniProt Q9UHN6)
inactive: [1] -0.018 | zotarolimus 0.008 | idasanutlin 0.021 | alisertib 0.202 | [2] 0.121 | gefitinib 0.072 | [3] 0.135 | lapatinib 0.026 | pictilisib 0.097

CEBPB (UniProt P17676)
inactive: [1] -0.135 | zotarolimus -0.001 | idasanutlin -0.118 | alisertib -0.366 | [2] -0.007 | gefitinib -0.116 | [3] -0.057 | lapatinib 0.066 | pictilisib 0

CDC5L (UniProt Q99459)
inactive: [1] 0.067 | filanesib 0.007 | zotarolimus 0.184 | idasanutlin 0.419 | alisertib 0.017 | [3] -0.08 | pictilisib -0.295

CHERP (UniProt Q8IWX8)
inactive: [1] 0.04 | filanesib 0.266 | zotarolimus 0.051 | idasanutlin 0.063 | alisertib 0.002 | [2] -0.227 | gefitinib -0.02 | [3] 0.002 | lapatinib -0.023 | pictilisib 0.038

Following part:

CDC45 isoform 3 (UniProt O75419)
inactive: [1] 0.013 | filanesib 0 | zotarolimus 0.036 | idasanutlin 0.104 | [2] -0.154 | gefitinib -0.131 | lapatinib 0.129 | pictilisib -0.227

CENPP (UniProt Q6IPU0)
inactive: [1] -0.087 | zotarolimus -0.021 | alisertib -0.106 | [2] 0.031 | gefitinib 0.021 | [3] 0.302 | lapatinib -0.004 | pictilisib -0.041
